Test results: paper PMC3930611
No constants are given. Whether binding was seen depends on the method and setting. Binding seen in cells or lysates may run through a third protein. Some binding calls cover weakened binding; strength is not graded here.

The chains behind the UniProt entries cited, without tags or fusion partners.
UniProt P49792: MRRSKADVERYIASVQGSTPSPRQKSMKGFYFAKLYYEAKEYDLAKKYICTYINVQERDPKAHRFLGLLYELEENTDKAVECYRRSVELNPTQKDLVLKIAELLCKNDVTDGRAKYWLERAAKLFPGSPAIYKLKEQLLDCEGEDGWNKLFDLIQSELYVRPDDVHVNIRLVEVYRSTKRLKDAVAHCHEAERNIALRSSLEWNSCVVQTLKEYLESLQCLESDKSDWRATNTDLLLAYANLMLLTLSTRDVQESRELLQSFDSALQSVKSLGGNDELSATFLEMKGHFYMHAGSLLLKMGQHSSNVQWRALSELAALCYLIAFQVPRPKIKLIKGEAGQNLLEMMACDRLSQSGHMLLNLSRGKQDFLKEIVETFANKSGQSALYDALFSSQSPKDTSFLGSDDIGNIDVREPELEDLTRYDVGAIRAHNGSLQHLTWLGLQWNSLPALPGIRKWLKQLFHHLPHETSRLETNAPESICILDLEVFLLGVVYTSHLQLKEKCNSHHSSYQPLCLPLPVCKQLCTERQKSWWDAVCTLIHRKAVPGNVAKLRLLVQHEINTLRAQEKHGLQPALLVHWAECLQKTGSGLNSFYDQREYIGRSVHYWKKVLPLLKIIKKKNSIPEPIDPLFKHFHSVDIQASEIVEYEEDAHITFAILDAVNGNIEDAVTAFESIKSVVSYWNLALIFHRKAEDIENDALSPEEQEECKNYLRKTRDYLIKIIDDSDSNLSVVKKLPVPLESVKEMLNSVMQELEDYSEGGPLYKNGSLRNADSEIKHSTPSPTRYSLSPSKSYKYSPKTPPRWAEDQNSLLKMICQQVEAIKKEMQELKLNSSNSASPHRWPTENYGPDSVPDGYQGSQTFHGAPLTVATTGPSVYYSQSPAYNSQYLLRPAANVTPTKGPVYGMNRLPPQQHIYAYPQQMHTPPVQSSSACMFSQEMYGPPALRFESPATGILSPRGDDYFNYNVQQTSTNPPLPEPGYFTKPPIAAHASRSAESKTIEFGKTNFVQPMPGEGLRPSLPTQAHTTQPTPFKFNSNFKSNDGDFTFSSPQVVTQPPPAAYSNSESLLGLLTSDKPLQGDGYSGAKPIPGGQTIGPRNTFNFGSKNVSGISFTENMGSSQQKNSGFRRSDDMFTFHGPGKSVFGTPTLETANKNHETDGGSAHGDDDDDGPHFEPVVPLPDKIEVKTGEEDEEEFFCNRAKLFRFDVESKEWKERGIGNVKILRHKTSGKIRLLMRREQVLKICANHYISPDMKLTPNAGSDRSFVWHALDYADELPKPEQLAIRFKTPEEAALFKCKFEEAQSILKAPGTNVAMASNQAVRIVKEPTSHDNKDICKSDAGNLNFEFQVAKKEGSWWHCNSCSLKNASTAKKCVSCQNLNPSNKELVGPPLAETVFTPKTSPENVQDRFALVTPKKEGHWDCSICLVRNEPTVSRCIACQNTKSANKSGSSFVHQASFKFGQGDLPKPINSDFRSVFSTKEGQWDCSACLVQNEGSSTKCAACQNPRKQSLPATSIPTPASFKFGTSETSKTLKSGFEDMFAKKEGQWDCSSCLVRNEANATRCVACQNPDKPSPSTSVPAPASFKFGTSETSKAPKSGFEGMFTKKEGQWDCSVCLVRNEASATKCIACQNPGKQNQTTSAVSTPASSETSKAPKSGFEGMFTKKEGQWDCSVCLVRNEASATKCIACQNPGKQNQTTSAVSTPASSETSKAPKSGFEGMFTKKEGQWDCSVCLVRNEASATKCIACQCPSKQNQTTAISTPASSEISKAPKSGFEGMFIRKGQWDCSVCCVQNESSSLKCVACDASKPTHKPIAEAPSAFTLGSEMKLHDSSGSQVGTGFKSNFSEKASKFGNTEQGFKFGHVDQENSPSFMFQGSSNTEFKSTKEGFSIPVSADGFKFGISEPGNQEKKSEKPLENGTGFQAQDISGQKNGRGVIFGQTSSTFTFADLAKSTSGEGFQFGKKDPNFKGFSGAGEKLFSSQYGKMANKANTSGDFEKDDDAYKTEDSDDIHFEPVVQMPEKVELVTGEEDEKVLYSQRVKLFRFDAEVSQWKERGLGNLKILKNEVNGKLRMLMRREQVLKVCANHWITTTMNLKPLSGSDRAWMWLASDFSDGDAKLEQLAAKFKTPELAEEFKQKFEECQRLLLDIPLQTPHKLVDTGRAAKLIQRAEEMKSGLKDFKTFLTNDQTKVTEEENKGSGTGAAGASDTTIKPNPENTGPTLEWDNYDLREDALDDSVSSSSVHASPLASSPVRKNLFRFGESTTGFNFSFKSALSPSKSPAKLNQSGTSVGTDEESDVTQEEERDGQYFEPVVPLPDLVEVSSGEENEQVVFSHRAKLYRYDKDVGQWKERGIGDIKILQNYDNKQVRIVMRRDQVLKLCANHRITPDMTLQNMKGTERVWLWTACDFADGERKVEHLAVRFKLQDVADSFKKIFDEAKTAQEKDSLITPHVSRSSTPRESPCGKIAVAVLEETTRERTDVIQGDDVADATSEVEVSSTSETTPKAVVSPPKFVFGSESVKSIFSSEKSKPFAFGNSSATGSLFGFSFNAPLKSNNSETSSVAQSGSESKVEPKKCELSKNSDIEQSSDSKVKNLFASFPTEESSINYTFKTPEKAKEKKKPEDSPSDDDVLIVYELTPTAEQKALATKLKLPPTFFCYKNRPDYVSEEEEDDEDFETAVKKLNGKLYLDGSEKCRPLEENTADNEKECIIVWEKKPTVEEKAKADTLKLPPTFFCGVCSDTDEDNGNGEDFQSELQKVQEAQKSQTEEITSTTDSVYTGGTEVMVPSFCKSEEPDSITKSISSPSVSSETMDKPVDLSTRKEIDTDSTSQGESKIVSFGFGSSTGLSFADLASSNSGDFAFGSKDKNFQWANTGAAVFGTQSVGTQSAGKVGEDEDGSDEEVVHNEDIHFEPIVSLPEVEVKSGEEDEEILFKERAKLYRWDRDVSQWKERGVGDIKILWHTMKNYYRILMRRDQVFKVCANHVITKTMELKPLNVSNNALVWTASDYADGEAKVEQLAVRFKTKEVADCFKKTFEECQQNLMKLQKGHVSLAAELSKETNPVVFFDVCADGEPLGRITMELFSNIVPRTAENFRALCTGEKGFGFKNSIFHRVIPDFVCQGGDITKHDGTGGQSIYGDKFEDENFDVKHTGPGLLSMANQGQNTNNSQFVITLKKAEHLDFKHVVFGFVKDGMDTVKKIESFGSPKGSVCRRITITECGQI

Target: Nup358 (endogenous, immunoprecipitated with an antibody against Nup358) (human (endogenous in HeLa)) (UniProt P49792)
Assay: co-IP; immunoprecipitation with an antibody against Nup358; tested for importin β and importin 7; data not shown

binding: binds
Substance: importin β (endogenous, HeLa) (from UniProt Q14974-1 1-876)
